From paper PMC5153457 come the findings set out here.

Experiment [1] concerns the target T1, TRAF6 (endogenous, MEFs) (mouse (endogenous in MEFs)) (UniProt P70196).
T1 sequence: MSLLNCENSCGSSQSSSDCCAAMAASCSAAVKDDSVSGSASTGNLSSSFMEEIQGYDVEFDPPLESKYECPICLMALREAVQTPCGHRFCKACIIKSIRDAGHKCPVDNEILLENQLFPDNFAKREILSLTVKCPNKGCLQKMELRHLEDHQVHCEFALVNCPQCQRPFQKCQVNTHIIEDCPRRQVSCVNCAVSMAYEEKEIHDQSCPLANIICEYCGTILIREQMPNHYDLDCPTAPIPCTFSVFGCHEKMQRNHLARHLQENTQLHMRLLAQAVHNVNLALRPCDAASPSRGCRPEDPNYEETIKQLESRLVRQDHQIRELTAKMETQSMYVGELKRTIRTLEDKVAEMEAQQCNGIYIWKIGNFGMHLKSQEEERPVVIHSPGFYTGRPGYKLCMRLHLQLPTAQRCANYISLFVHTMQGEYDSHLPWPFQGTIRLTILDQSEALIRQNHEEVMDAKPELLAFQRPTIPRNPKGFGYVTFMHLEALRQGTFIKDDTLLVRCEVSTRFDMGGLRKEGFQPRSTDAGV
The experiment in a line: co-IP; endogenous proteins; CRTC2 recovered from immunoprecipitates of TRAF6 from MEFs, immunoblot; basal and after IL-1β (10 μg l^−1); TRAF6^−/− and CRTC2^−/− MEFs as controls.

The target in experiment [2] is T2, TRAF6 wild type (expressed in HEK293T cells) (UniProt P70196).
T2 sequence: T1 sequence
The experiment in a line: co-IP; HEK293T cells expressing CRTC2 (wild type or E2A) and TRAF6; immunoblots (Figure 2h). Background: Immunoblotting shows a protein as a band on a membrane.

The target in another experiment is T3, TRAF2 (UniProt P39429).
T3 sequence: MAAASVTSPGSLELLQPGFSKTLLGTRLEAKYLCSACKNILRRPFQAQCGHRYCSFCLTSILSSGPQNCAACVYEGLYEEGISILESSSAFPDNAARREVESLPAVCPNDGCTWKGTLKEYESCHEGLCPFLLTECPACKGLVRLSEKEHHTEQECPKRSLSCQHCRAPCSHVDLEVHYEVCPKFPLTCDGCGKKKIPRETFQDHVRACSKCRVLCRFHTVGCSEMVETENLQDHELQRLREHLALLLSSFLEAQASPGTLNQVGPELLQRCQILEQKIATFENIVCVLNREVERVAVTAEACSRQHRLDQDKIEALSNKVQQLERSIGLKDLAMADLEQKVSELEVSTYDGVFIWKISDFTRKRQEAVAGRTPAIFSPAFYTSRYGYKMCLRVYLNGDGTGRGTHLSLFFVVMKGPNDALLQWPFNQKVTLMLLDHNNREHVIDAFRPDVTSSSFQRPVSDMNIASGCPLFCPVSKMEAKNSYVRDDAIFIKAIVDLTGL
The experiment in a line: co-IP; Supplementary Figure S6a; legend not shown, cells and direction not told; immunoprecipitation is the only binding method in the methods.

Experiment [3] deals with T2, TRAF6 wild type (expressed in HEK293T cells). The experiment in a line: co-IP; Supplementary Figure S5b, d, e; legend not shown, cells and direction not told; immunoprecipitation is the only binding method in the methods.

Results are given in words; binding and its absence hold for the method and conditions named. In cells and extracts the contact can be indirect. Some entries that bind do so weakly or less than the wild type.

B1: CRTC2 (endogenous, MEFs) (protein, UniProt Q3U182 1-692)
chain: MATSGANGPGSATASASNPRKFSEKIALQKQRQAEETAAFEEVMMDIGSTRLQAQKLRLAYTRSSHYGGSLPNVNQIGCGLAEFQSPLHSPLDSSRSTRHHGLVERVQRDARRMVSPLRRYPRHIDSSPYSPAYLSPPPESGWRRMMPWGNLPAEKGQLFRLPSALNRTSSDSALHTSVMNPNPQDTYPGPTPPSVLPSRRGGGFLDGEMDAKVPAIEENVVDDKHLLKPWDAKKLSSSSSRPRSCEVPGINIFPSPDQPANVPVLPPAMNTGGSLPDLTNLHFPPPLPTPLDPEETVYPSLSGGNSTTNLTHTMTHLGISGGLGLGPSYDVPGLHSPLSHPSLQSSLSNPNLQASLSSPQPQLQGSHSHPSLPASSLAHHALPTTSLGHPSLSAPALSSSSSSSSTSSPVLSAPPYPASTPGASPRHRRVPLSPLSLPAGPADARRSQQQLPKQFSPTMSPTLSSITQGVPLDTSKLPTDQRLPPYPYSPPSLVIPTHPPTPKSLQQLPSQACLVQPSGGQPPGRQPHYGALYPPGSSGHGQQPYHRPINDFSLGNLEQFNMESPSTSLVLDPPAFSEGPGFLGSEGSMSGPQDPHVLNHQNLTHCSRHGSGPNIILTGDSSPGFSKEIAAALAGVPGFEVSASGLELGLGLEDELRMEPLGLEGLTMLSDPCALLPDPAVEDSFRSDRLQ
Turning to B1, in experiment [1], the binding entry is “binds”.

B2: CRTC2 wild type (expressed in HEK293T cells) (protein, UniProt Q3U182 1-692)
chain: B1 chain
Consider B2, for which the binding entry (in experiment [2]; with TRAF2; in experiment [3]) was “binds” throughout.

B3: CRTC1 wild type (protein, UniProt Q68ED7 1-630)
chain: MATSNNPRKFSEKIALHNQKQAEETAAFEEVMKDLSLTRAARLQLQKSQYLQLGPSRGQYYGGSLPNVNQIGSSSVDLAFQTPFQSSGLDTSRTTRHHGLVDRVYRERGRLGSPHRRPLSVDKHGRQADSCPYGTVYLSPPADTSWRRTNSDSALHQSTMTPSQAESFTGGSQDAHQKRVLLLTVPGMEDTGAETDKTLSKQSWDSKKAGSRPKSCEVPGINIFPSADQENTTALIPATHNTGGSLPDLTNIHFPSPLPTPLDPEEPPFPALTSSSSTGSLAHLGVGGAGQGMNTPSSSPQHRPAVVSPLSLSTEARRQQAQQVSPTLSPLSPITQAVAMDALSLEQQLPYAFFTQTGSQQPPPQPQPPPPPPPVSQQQPPPPQVSVGLPQGGPLLPSASLTRGPQLPPLSVTVPSTLPQSPTENPGQSPMGIDATSAPALQYRTSAGSPATQSPTSPVSNQGFSPGSSPQHTSTLGSVFGDAYYEQQMTARQANALSRQLEQFNMMENAISSSSLYNPGSTLNYSQAAMMGLSGSHGGLQDPQQLGYTGHGGIPNIILTVTGESPPSLSKELSSTLAGVSDVSFDSDHQFPLDELKIDPLTLDGLHMLNDPDMVLADPATEDTFRMDRL
Consider B3, for which the binding entry in experiment [3] is given as “binds”.
